Measured values: PMC4058850, “The Bifunctional Pyruvate Decarboxylase/Pyruvate Ferredoxin Oxidoreductase from Thermococcus guaymasensis” (Archaea, 2014)

Biological target: PorA subunit of the pyruvate ferredoxin oxidoreductase from Thermococcus guaymasensis (Thermococcus guaymasensis (endogenous in DSM 11113))
Assay: SEC; native enzyme purified from T. guaymasensis (about 1 mg) on HiLoad Superdex-200 in buffer E (50 mM Tris pH 7.8, 5% glycerol, 100 mM KCl, 2 mM DTT, 2 mM SDT), 2.5 mL/min, calibrated with protein standards; SDS-PAGE of the enzyme after the column; apparent Mr 258,000; both purified

- binding: binds
B1: PorD subunit of the pyruvate ferredoxin oxidoreductase from Thermococcus guaymasensis (protein, UniProt W8CR61 1-105)
chain: MAESPFKADIERVQKEYSEKMTPGAIAYIPGSSVINKTGSWRVFMPEFNREKCTRCYLCYIYCPEPAIYLDEEGYPVFDYDYCKGCGVCANECPVGAIVMVRETK

No constants are given. Whether binding was seen depends on the method and setting. Binding can be weak; no strength is given.
